Experimental data reported in the supplement of paper PMC10849652.
The list shows a part of the results.

Protein sequences, listed by entry. Tags and fused reporters are not part of them. Lines headed by an entry give the natural chain unless they say otherwise; changes in a name come on top.
UniProt P53007, whole entry, looked up: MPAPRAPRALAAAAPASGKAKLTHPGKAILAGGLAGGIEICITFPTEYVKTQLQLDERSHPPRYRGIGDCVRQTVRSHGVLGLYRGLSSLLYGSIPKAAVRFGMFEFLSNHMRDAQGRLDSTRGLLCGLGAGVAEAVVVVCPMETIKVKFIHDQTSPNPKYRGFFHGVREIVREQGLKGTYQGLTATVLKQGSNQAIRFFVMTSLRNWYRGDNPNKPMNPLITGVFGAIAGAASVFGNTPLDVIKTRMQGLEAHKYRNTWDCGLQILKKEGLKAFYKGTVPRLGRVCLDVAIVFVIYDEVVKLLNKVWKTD
UniProt Q9ULF5: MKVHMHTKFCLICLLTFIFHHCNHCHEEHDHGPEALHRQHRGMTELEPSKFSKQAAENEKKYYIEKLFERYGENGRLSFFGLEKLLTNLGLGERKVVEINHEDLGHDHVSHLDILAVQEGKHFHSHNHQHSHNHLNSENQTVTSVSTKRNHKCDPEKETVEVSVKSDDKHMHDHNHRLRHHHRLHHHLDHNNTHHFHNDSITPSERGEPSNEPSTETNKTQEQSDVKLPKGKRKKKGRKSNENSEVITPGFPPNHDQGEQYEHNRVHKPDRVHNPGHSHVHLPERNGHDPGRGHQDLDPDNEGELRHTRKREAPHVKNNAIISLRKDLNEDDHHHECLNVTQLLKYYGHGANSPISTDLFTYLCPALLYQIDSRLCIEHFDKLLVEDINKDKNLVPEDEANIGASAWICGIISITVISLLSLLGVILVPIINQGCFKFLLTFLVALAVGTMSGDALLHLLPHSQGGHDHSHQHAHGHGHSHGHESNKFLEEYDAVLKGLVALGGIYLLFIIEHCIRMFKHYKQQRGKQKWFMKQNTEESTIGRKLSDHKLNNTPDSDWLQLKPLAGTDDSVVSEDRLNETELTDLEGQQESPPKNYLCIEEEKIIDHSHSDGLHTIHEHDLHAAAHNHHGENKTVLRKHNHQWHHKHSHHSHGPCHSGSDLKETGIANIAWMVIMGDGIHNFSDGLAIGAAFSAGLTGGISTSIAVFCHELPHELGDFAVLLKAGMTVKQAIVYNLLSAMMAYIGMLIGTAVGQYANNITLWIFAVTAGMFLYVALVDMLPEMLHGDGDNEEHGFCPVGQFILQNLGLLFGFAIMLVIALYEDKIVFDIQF
UniProt P30825: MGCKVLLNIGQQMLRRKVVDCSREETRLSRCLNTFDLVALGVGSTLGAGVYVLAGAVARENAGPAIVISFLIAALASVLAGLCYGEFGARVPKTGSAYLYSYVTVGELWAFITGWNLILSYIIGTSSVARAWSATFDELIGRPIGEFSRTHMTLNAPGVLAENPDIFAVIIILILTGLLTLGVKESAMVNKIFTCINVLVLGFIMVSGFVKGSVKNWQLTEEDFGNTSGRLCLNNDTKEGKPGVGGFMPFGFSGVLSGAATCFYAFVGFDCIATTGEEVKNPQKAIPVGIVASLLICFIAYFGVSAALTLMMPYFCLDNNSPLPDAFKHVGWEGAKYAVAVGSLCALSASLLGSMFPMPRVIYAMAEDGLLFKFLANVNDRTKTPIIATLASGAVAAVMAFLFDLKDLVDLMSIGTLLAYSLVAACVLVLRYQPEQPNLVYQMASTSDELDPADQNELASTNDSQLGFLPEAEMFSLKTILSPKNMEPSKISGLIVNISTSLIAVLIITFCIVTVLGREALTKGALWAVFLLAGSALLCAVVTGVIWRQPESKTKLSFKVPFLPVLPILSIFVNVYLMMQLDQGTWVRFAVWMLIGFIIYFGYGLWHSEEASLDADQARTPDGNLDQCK
UniProt Q9NYZ2: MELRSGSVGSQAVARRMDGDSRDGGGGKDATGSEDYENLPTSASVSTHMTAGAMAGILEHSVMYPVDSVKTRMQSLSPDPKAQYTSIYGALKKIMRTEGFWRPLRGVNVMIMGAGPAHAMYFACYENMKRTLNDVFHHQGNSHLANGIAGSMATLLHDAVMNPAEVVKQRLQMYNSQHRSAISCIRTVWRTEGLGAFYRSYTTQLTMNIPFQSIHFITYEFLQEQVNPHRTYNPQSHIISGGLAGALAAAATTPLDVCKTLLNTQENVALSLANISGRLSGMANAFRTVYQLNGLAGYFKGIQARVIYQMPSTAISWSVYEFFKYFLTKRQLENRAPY
UniProt Q9NQQ7: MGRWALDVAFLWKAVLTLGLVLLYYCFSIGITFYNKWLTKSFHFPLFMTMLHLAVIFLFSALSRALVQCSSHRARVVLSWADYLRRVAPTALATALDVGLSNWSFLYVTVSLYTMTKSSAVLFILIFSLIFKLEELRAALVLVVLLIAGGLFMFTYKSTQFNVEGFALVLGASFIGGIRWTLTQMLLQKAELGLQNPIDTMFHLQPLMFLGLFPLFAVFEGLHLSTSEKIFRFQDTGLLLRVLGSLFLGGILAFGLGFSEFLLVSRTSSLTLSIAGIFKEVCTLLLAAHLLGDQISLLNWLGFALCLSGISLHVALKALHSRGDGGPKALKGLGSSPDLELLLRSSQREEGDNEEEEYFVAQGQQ
UniProt Q9HAB3: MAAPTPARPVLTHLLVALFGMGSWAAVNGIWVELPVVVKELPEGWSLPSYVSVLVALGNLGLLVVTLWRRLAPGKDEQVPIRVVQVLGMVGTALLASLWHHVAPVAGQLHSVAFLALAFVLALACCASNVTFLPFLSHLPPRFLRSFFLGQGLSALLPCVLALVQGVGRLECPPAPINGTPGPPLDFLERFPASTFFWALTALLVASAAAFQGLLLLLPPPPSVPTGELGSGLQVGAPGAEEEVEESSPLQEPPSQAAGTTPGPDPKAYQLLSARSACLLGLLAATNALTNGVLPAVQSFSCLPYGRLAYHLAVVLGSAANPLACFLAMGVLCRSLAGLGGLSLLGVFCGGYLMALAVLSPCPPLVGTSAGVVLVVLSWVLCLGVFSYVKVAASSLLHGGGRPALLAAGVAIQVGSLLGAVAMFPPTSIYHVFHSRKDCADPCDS
UniProt Q6P1M0: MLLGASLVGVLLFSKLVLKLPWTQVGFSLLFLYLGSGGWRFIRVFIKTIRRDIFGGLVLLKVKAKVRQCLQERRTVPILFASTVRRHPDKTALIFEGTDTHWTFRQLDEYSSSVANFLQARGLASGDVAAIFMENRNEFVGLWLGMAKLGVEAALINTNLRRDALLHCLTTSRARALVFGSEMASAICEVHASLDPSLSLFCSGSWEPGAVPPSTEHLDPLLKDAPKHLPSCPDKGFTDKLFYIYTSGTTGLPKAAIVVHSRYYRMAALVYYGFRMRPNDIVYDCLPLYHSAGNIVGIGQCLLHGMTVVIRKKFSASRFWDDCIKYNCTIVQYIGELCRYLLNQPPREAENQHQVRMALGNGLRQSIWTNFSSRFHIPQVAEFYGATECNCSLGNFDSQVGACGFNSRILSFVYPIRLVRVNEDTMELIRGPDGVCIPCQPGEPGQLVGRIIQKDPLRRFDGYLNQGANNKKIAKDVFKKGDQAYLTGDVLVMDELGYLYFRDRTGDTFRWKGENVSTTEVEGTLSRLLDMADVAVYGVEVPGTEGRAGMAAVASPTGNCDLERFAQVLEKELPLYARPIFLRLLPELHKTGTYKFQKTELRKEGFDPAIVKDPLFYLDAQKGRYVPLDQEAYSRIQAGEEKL
UniProt Q9UP95: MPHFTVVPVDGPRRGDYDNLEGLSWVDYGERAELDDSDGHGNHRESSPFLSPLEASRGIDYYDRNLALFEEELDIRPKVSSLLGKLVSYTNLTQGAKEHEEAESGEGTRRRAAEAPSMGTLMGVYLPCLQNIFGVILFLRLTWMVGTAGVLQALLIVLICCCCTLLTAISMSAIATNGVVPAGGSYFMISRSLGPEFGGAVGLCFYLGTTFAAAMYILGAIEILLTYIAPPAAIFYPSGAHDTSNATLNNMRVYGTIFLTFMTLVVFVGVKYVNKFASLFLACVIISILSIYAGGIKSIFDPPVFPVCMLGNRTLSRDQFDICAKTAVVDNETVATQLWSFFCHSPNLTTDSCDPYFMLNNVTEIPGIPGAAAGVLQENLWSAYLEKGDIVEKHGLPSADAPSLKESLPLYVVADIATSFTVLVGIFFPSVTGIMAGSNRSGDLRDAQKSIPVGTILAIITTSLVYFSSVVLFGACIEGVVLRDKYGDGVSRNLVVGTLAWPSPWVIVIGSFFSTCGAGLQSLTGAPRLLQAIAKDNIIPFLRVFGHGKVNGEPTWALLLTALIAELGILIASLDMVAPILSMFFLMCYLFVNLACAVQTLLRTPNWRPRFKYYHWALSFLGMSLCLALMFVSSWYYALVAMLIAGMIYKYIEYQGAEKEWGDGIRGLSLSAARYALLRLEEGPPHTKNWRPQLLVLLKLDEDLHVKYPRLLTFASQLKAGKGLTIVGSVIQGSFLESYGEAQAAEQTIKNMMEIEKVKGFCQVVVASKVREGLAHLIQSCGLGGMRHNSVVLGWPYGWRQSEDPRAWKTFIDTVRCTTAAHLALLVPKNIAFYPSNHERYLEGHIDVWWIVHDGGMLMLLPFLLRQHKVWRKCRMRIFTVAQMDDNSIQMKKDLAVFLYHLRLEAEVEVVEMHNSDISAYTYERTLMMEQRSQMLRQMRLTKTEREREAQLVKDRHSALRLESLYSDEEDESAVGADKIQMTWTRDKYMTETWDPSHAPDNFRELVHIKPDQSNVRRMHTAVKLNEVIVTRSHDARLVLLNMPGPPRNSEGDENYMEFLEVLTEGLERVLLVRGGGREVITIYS
UniProt Q969S0: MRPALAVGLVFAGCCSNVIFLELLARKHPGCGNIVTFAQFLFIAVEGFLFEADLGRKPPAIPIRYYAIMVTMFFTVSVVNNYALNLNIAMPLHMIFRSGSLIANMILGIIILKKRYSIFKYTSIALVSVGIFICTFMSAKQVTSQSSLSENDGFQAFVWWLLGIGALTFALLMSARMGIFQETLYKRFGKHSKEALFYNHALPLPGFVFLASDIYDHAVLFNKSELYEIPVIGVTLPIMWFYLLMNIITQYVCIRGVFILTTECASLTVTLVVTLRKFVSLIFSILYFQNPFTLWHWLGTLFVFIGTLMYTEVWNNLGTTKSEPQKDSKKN
UniProt Q92504: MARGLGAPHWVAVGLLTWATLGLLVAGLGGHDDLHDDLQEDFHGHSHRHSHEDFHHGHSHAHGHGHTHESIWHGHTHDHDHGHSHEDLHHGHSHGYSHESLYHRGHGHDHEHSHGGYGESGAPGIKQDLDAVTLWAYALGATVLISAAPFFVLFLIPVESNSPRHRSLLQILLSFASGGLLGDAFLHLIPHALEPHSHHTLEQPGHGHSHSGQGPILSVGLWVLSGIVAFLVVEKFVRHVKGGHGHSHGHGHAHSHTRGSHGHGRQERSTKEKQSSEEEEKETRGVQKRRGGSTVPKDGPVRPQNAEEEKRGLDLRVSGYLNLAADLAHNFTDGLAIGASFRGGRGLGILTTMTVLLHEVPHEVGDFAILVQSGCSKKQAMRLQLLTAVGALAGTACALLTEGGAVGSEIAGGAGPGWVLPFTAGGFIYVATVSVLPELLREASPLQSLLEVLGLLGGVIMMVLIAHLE

What was measured:
Experiment in all cases: log2 fold change, soluble protein after heating vs DMSO (PISA); higher = thermal stabilisation; K562 cells, 10 uM, 30 min; active = over 0.2 and 3.5 SD of the protein, either way, in both replicates (recomputed)
[1] = compound: C1=CC=C(C=C1)[C@H](COC2=CC3=C(C=C2)NC(=O)N3)NC(=O)C4=CC=CN(C4=O)CC5=CC(=C(C=C5)F)F
In short: (§1)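 K562 cells at 2×10^6 cells/mL were treated with 10 μM compound for 30 min. Aliquots were heated for 3 min across 48°C-58°C, pooled, and extracted in PBS with 0.5% NP-40 at 4°C; soluble protein was the supernatant after 21,000xg for 90 min. Soluble protein was quantified by TMTpro 16plex LC-MS/MS with channel sums equalised, and reported as log2 fold change in thermal stability against DMSO controls, with values from duplicates.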

[2] = compound: CC1=C(SC2=C1C(=N[C@H](C3=NN=C(N32)C)CC(=O)N)C4=CC=C(C=C4)Cl)C
In short: as §1

[3] = compound: CC1=C2C(=CC=C1)N=C(N(C2=O)C3=CC=CC=C3C)CN4C=NC5=C(N=CN=C54)N
In short: as §1

[4] = compound: Cc1sc2c(c1C)C(c1ccc(Cl)cc1)=N[C@@H](CC(=O)OC(C)(C)C)c1nnc(C)n1-2
In short: as §1

[5] = compound: c1ccc([C@@H]2C[C@H]2NC2CCNCC2)cc1
In short: as §1

Measured: log2 fold change

SLC25A1 (UniProt P53007)
inactive: [1] 0.031 | [2] -0.006 | [3] -0.037 | [4] 0.007 | [5] 0.025

SLC39A10 (UniProt Q9ULF5)
inactive: [1] 0.019 | [2] 0.073 | [3] 0.002 | [4] 0.042 | [5] 0

SLC7A1 (UniProt P30825)
inactive: [1] 0.013 | [2] 0.006 | [3] -0.018 | [4] 0.007 | [5] 0.082

SLC25A37 (UniProt Q9NYZ2)
inactive: [1] 0.079 | [2] -0.036 | [3] 0.106 | [4] 0.039 | [5] 0.026

Random excerpt: 2 records from the list
SLC25A1 (UniProt P53007)
inactive: [1] 0.031 | [2] -0.006 | [3] -0.037 | [4] 0.007 | [5] 0.025

SLC39A10 (UniProt Q9ULF5)
inactive: [1] 0.019 | [2] 0.073 | [3] 0.002 | [4] 0.042 | [5] 0

Remaining list, next part

SLC35C2 isoform 3 (UniProt Q9NQQ7)
inactive: [1] -0.049 | [2] -0.055 | [5] -0.174

SLC52A2 (UniProt Q9HAB3)
inactive: [1] 0.001 | [4] -0.349

SLC27A4 (UniProt Q6P1M0)
inactive: [1] -0.018 | [2] 0.095 | [3] 0.037 | [4] -0.027 | [5] -0.019

SLC12A4 (UniProt Q9UP95)
inactive: [1] 0 | [2] 0.04 | [3] -0.065 | [4] 0.002 | [5] 0.007

SLC35B4 (UniProt Q969S0)
inactive: [1] 0.061 | [3] -0.069 | [4] -0.137

SLC39A7 (UniProt Q92504)
inactive: [1] 0.028 | [2] -0.064 | [3] 0.047 | [4] 0.031 | [5] 0.003
